According to PubChem BioAssay AID590 (National Center for Advancing Translational Sciences (NCATS), 2007):
The campaign covered roughly 59,000 compounds. About 6,500 (11%) were called active. This list was built around the results that the source calls inconclusive (neither active nor inactive); the mix of calls is not that of the screen. No stated cut-off is given here; in the data, active means max dye-equivalent concentration above about 10 nM; inconclusive means mostly about 1.1 nM to 9.6 nM; inactive means weaker than that.

Assay: qHTS Assay for Spectroscopic Profiling in A350 Spectral Region
Settings: Compound autofluorescence, 340/450 nm, Alexa 350 dye-equivalents; active compounds read high

| SMILES | max dye-equivalent concentration |
| --- | --- |
| O=C(Nc1nc2n(n1)C(c1ccccc1)C=C(c1ccccc1)N2)c1ccco1 (configuration not stated) | inconclusive: 6.9 nM |
| COc1ccccc1S(=O)(=O)Cc1ccc(C(=O)NC2CCCCC2)o1 | inconclusive: 3.3 nM |
| Fc1ccc(Cn2nnc(-c3ccc(CN4CCOCC4)cc3)n2)cc1 | inconclusive: 1.1 nM |
| O=C(Nc1nncs1)c1ccc(N2C(=O)C3C4C=CC(C4)C3C2=O)cc1 (configuration not stated) | inactive |
| CN(C)c1ccc(CN(C(=O)C2COc3ccccc3O2)C2CCS(=O)(=O)C2)cc1 (configuration not stated) | inconclusive: 8.6 nM |
| CCC(=O)N(CCCN(C)C)c1nc(-c2cc(OC)ccc2OC)cs1 | inconclusive: 1.6 nM |
| Cc1cc(N2CCN(C(=O)c3ccco3)CC2)n2nc(C)c(-c3ccc(Cl)cc3)c2n1 | active: 81 nM |
| O=C(CSc1nnc(-c2cccs2)n1Cc1ccco1)c1ccc2c(c1)OCO2 | inactive |
| CCn1c(SCC(=O)NCc2ccco2)nnc1-c1ccc(N)cc1 | inactive |
| O=C(NCc1ccco1)c1cc2nc(-c3ccc4c(c3)OCO4)cc(C(F)(F)F)n2n1 | inconclusive: 6.3 nM |
| COc1ccc(C(=O)Cn2c(=O)c(CCC(=O)O)nn3c4ccccc4nc23)cc1OC | active: 10 nM |
| CCc1ccc2[nH]c(=O)c(CN(Cc3ccc4c(c3)OCO4)C(=O)c3ccco3)cc2c1 | inconclusive: 3.2 nM |
| Cc1nc(SCc2cccc(F)c2)[nH]c(=O)c1C#N | inconclusive: 1.5 nM |
| Cc1nn(-c2ccccc2)c2c1C(c1c(C)[nH]c(C#N)c1C)C(C#N)=C(N)O2 (configuration not stated) | inconclusive: 2.5 nM |
| CCCC(=O)c1cc2cc(Cl)ccc2oc1=O | inconclusive: 1.1 nM |
| CN(C)Cc1ccc(-c2cc3onc(-c4ccccc4)c3c(=O)n2C)cc1 | inactive |
| CCOC(=O)CNC(=O)c1cc(C)oc1C | inconclusive: 1.1 nM |
| CN(C)c1ncc2nc(-c3cccs3)c(=O)n(-c3ccccc3)c2n1 | inconclusive: 7.8 nM |
| S=c1[nH]nc(C23CC4CC(CC(C4)C2)C3)n1Cc1ccco1 | inactive |
| COc1ccc(Oc2c(C)oc3cc(OC(=O)N4CCOCC4)ccc3c2=O)cc1 | inconclusive: 2.1 nM |
| COc1ccccc1NC(=O)c1oc2ccccc2c1NC(=O)c1cc(OC)c(OC)c(OC)c1 | active: 110 nM |
| COC(=O)c1ccc2nc(C(F)(F)F)[nH]c2c1 | inactive |

| SMILES | max dye-equivalent concentration |
| --- | --- |
| c1nc(N2CCNCC2)c2sc3nc(N4CCOCC4)c4c(c3c2n1)CCC4 | inconclusive: 1.6 nM |
| COc1cc(C(=O)Nc2cccc(-c3nc4ncccc4o3)c2C)cc(OC)c1OC | inactive |
| CCCC(=O)Nc1cc(C)c(NC(=O)c2ccncc2)cn1 | inactive |
| CCCCn1c(N)c(N(CCOC)C(=O)CSc2nc3ccc(C)cc3[nH]2)c(=O)[nH]c1=O | inconclusive: 3.5 nM |
| O=C(NC1CC2CCC1C2)C1CCN(S(=O)(=O)c2ccc(-c3nn[nH]n3)cc2)CC1 (configuration not stated) | inactive |
| O=C(Cn1cnc2c(cnn2-c2ccccc2)c1=O)N1CCN(c2ccc(F)cc2)CC1 | inconclusive: 1.4 nM |
| c1ccc2c(NC3CCCC3)nnc(NC3CCCC3)c2c1 | active: 88 nM |
| O=C(C1CCCO1)N1CCC(c2nc3ccccc3[nH]2)CC1 (configuration not stated) | inconclusive: 1.2 nM |
| COc1ccc2c(C(=O)CN3CC(C)OC(C)C3)c[nH]c2c1 (configuration not stated) | inconclusive: 4.1 nM |
| COC(=O)c1ccc(CSc2nnc(NCc3ccccc3)s2)o1 | inactive |
| Cn1nc(-c2ccc(N3CCOCC3)c(NS(=O)(=O)c3ccccc3)c2)c2ccccc2c1=O | inconclusive: 1.1 nM |
| CC(C)Sc1nc(NCc2ccco2)c2c3c(sc2n1)COC(C)(C)C3 | inactive |
| Clc1ccccc1-c1nn2c(-c3ccncc3)nnc2s1 | inactive |
| Cc1nc(SCn2nnc3ccccc3c2=O)c2c(C)c(C)sc2n1 | inactive |
| CCc1ccccc1OCc1nnc(N)s1 | inconclusive: 5.7 nM |
| CCC(=O)Nc1ccc2oc(-c3cccc(C)c3)nc2c1 | active: 13 nM |
| O=C(CN(Cc1ccc2c(c1)OCO2)C(=O)CSc1nc2ccccc2o1)NC1CCCCC1 | inconclusive: 3.6 nM |
| COc1cccc(N(C(=O)CNC(=O)c2ccco2)C(C(=O)NC2CCCCC2)c2ccncc2)c1 (configuration not stated) | inactive |
| CC1(C)S[C@@H]2[C@H](NC(=O)[C@@H](N)c3ccccc3)C(=O)N2[C@H]1C(=O)O[C@H]1OC(=O)c2ccccc21 | active: 17 nM |
| CCOC(=O)COc1ccc(-c2nnc(-c3ccccc3)o2)cc1 | inconclusive: 3.2 nM |
| O=C(O)[C@@H]1CCCC[C@@H]1C(=O)N1CCc2ccccc2C1CN1C(=O)c2ccccc2C1=O (some centres not stated) | inconclusive: 2.6 nM |
| O=C(CCN1C(=O)C2CC=C(Cl)CC2C1=O)NC1CCCCC1 (configuration not stated) | inconclusive: 1.7 nM |

| SMILES | max dye-equivalent concentration |
| --- | --- |
| CC(=O)N1CCC2(CC1)CCN(c1ccccc1)CC2 | inactive |
| CC(C)C(=O)N1CCN(c2nc(-c3ccccc3)c3c(c2C#N)CCCC3)CC1 | active: 200 nM |
| CCOC(=O)C1CCCN(c2ncnc3c2cnn3-c2ccc(Cl)cc2)C1 (configuration not stated) | inconclusive: 1.3 nM |
| CCOc1ccc(C(=O)CN2CCN(S(=O)(=O)c3ccc(F)cc3)CC2)cc1 | inconclusive: 1.4 nM |
| Cc1nc2oc(C(=O)c3ccc(Br)cc3)c(N)c2c2c1COC(C)(C)C2 | inconclusive: 5.2 nM |
| CCCCC(=O)N=c1sc2cc(S(C)(=O)=O)ccc2n1C | inconclusive: 2.1 nM |
| CN(C)CCN1C(=O)c2oc3ccccc3c(=O)c2C1c1ccccc1 (configuration not stated) | inconclusive: 1.1 nM |
| O=C(Nc1ccccc1N1CCCC1)c1cc2ccccc2o1 | inconclusive: 6 nM |
| COCCN(C(=O)Nc1ccccc1)c1ccccc1C | inconclusive: 2.9 nM |
| COc1ccc(N(CC(=O)NC2CCCC2)C(=O)Cn2nnc(-c3ccc(F)cc3)n2)cc1OC | inconclusive: 3.8 nM |
| O=S(=O)(NCCCCCNS(=O)(=O)c1ccc(F)cc1)c1ccc(F)cc1 | inactive |
| O=C(CN1CCC(n2nnc3cc(F)ccc32)CC1)N1CCc2ccccc2C1 | inactive |
| Cc1cc(C)nc(NC2=NCC(=O)N2c2ccccc2)n1 | inconclusive: 2.4 nM |
| CCOc1ccc(C(C)(N)C(=O)O)cc1 (configuration not stated) | inactive |
| O=C(CC1N=C2c3ccccc3N=C(SCc3ccc(Cl)cc3)N2C1=O)NCc1ccco1 (configuration not stated) | active: 21 nM |
| COCCOC(=O)C1=C(N)OC2=C(C(=O)CCC2)C1c1cccnc1 (configuration not stated) | active: 14 nM |
| CCCS(=O)(=O)Nc1cc(C(F)(F)F)ccc1OCCOC | inactive |
| COc1ccc(-n2c(=O)c3ccccc3n(CC(=O)NC3CCCCC3)c2=O)c(OC)c1 | inconclusive: 1.4 nM |
| Cc1cccc(CC2CC(=O)N(c3ccccc3)C2=O)c1 (configuration not stated) | inconclusive: 1.4 nM |
| CCOC(=O)C1=C(C)N(CCO)C(=O)NC1c1ccccc1 (configuration not stated) | inconclusive: 7 nM |
| CCN(CC)CCN1C(=O)C(=O)/C(=C(/O)c2ccncc2)C1c1ccccc1 (configuration not stated) | inconclusive: 1.3 nM |
| Cc1ccc(N2CC(C(=O)N3CCc4ccccc43)CC2=O)cc1 (configuration not stated) | inactive |

| SMILES | max dye-equivalent concentration |
| --- | --- |
| COCCCN1C(=O)C(=O)/C(=C(/O)c2ccc(OC)cc2C)C1c1cccnc1 (configuration not stated) | inconclusive: 7.3 nM |
| CS(=O)(=O)N(CC(=O)Nc1cccnc1)c1ccc2c(c1)OCCO2 | inconclusive: 1.1 nM |
| CCN(CC)CCn1c(SCC(=O)NCc2ccco2)nc2c(sc3ccccc32)c1=O | active: 12 nM |
| CSc1ncnc2c1ncn2CC(=O)[C@H]1CC[C@H]2[C@H]3CCC4=CC(=O)CC[C@@]4(C)[C@@H]3CC[C@@]12C | inconclusive: 7.7 nM |
| CCOC(=O)N1CCC(NC(=O)CCc2nc(-c3ccccc3F)no2)CC1 | inactive |
| CC1(C(=O)N(c2ccccc2)C(C(=O)NC2CCCC2)c2ccccn2)CC(=O)N=C2C=CC=CN21 (configuration not stated) | active: 410 nM |
| CCOC(=O)C1C(=O)Nc2nc(C)nn2C1c1ccccc1 (configuration not stated) | inconclusive: 1.6 nM |
| CC(C)(C)OC(=O)[C@H]([C@@H]1N[C@@H](C(=O)O)C(C)(C)S1)N1C(=O)c2ccccc2C1=O | active: 54 nM |
| CCOc1ncccc1C(=O)OCc1cc(=O)n2c(n1)sc1ccccc12 | inactive |
| O=c1c(-c2cc(F)cc(F)c2)nc2cnc(N3CCOCC3)nc2n1-c1ccccc1 | active: 17 nM |
| O=C(CSc1nc(-c2cccs2)cc(C(F)(F)F)n1)NCCCn1ccnc1 | inconclusive: 8.1 nM |
| O=c1c2cc(Cl)ccc2oc2nc3n(c(=O)c12)CCCS3 | inconclusive: 2 nM |
| O=C(O)c1ccc2[nH]c3c(c2c1)CSCC3 | inconclusive: 3.3 nM |
| Cc1cc(C)n2nc(SCc3cc(=O)n4c(C)cccc4n3)nc2n1 | inconclusive: 6.6 nM |
| COc1ccc(-c2cc(C(F)(F)F)nc(N3CCOCC3)n2)cc1OC | active: 30 nM |
| CN(C)C(=O)c1ccc(-c2ccc3ncnc(N(C)Cc4ccco4)c3c2)cc1 | inactive |
| O=C(c1ccc2c(c1)C(=O)N(c1ccc(Cl)cc1)C2=O)N1CCN(c2ccccn2)CC1 | inactive |
| CCCNc1nc2c(c(=O)n(C)c(=O)n2C)n1Cc1cccc(C)c1 | inconclusive: 1.1 nM |
| O=C1OC(Nc2ccc3c(c2)OCO3)c2ccccc21 (configuration not stated) | inactive |
| CN(C)c1cccc2c(S(=O)(=O)Nc3ccccn3)cccc12 | inconclusive: 7.3 nM |
| CC(C)c1[nH]nc2c1C(Cc1ccccc1)C(C#N)=C(N)O2 (configuration not stated) | inactive |

Some values from the list.
CS(=O)(=O)N(CC(=O)Nc1cccnc1)c1ccc2c(c1)OCCO2 | max dye-equivalent concentration: inconclusive: 1.1 nM
COCCCN1C(=O)C(=O)/C(=C(/O)c2ccc(OC)cc2C)C1c1cccnc1 (configuration not stated) | max dye-equivalent concentration: inconclusive: 7.3 nM
CCOC(=O)N1CCC(NC(=O)CCc2nc(-c3ccccc3F)no2)CC1 | max dye-equivalent concentration: inactive
